# Structures were worked out from names or drawings and are uncertain.
# Amino acid sequences for entries named in this document (tags omitted).
# UniProt Q8TDV5, whole entry: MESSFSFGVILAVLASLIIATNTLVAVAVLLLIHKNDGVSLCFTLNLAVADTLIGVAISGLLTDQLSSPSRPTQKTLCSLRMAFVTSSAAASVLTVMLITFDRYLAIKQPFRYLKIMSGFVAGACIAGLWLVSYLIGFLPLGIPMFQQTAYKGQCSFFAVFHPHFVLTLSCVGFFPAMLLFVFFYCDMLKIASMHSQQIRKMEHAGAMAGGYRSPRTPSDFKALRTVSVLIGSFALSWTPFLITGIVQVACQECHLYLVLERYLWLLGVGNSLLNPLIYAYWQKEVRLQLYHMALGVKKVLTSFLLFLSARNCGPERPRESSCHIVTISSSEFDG
# Biological target: human GPR119 (Homo sapiens, UniProt Q8TDV5)
# Experiment: Cyclic AMP (HTRF cAMP) assay for human GPR119, Method A
# Assay type: cell-based
structure (smiles),measurement,setting,value
CC(C)(C)OC(=O)N1CCN(c2ncc(OCc3ccc(-n4cncn4)nc3)cn2)CC1,EC50,"HEK 293s cells over-expressing human GPR119, midpoint of dose response curve, selected examples",103 nM
same,% activation @ 30 μM,"HEK 293s cells over-expressing human GPR119, percent effect at top concentration 30 μM relative to maximum (50 μM Oleoylethanolamide) and minimum (1% DMSO) controls",88%

# — patent publication US20110065706A1, “Therapeutic Agents 812” (AstraZeneca AB, priority 2009, published 2011)
